Where two headings read alike, the source gives them in different places. These are yes or no findings as the source states them, for the method shown. In cells and extracts the contact can be indirect. Some entries that bind do so weakly or less than the wild type. One block for each molecule: values may come before it.
Legend:
[1] = target: T1, podocin (rat (endogenous in rat glomeruli)) (UniProt Q8K4G9); experiment: co-IP; immunoprecipitation with anti-podocin antibody (control: normal rabbit IgG) from S1 (0.1% TritonX-100) and S2 (RIPA buffer) fractions of rat glomeruli incubated 30 min with or without 20 µM myr-ζPS peptide; immunoblotting
T1 sequence: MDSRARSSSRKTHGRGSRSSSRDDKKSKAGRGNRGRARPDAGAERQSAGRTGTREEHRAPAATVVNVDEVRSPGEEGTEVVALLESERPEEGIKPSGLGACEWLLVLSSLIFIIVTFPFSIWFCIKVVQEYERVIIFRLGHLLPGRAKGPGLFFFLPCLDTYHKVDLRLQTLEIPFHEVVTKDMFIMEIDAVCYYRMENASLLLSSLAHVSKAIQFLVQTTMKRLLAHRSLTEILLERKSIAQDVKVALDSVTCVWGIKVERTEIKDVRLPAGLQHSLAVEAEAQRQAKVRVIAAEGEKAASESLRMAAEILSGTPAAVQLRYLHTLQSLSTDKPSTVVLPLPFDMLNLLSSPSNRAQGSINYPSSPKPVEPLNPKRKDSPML

By UniProt entry, the sequences of proteins in these tests, tags left out.
UniProt Q9Z340: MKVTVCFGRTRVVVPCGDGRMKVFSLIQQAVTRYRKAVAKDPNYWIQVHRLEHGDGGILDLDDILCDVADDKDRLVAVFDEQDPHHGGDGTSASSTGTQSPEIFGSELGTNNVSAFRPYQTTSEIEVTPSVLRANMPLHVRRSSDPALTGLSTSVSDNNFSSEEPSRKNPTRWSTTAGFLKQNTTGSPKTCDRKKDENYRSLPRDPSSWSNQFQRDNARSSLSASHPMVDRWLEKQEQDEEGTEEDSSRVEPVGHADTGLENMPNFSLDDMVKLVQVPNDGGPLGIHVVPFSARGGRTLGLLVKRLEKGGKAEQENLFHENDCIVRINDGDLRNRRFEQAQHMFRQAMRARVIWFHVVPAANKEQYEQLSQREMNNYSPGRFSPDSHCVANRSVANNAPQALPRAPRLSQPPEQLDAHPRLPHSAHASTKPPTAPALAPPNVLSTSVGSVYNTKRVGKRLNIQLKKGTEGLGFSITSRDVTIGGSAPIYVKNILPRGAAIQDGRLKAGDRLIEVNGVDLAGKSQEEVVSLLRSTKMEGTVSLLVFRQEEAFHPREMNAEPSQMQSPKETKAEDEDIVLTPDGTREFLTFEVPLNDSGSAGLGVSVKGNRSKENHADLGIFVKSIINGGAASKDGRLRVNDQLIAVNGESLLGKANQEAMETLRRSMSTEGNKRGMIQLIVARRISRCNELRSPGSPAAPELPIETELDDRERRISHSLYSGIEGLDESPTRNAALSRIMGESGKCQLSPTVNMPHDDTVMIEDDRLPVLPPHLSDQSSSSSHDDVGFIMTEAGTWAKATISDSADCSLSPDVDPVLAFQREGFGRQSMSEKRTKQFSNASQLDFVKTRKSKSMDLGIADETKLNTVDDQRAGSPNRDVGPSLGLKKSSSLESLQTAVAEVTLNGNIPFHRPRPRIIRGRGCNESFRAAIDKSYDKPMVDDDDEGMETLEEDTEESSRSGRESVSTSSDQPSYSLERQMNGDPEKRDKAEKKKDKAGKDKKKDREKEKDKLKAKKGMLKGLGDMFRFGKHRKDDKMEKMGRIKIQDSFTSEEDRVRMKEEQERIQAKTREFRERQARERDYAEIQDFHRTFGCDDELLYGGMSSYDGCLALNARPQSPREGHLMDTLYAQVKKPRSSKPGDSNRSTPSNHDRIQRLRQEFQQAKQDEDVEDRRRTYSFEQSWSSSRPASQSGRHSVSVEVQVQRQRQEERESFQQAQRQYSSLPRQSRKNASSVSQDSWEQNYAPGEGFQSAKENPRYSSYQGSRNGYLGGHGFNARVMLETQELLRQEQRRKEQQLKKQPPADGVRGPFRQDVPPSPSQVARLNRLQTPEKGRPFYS

[2] = target: PAR3 (rat (endogenous in rat glomeruli)) (UniProt Q9Z340); experiment: co-IP; immunoprecipitation of endogenous PAR3 with two independent anti-PAR3 antibodies (UBI, C2-2AP) from rat glomerular fractions Gl-S1 (IP buffer, 0.1% TritonX-100) and Gl-S2 (1% TritonX-100, 20 mM CHAPS); immunoblotting
[3] = target: T1, podocin (rat (endogenous in rat glomeruli)); experiment: co-IP; immunoprecipitation with anti-podocin antibody (control: normal rabbit IgG) from S1 (0.1% TritonX-100) and S2 (RIPA buffer) fractions of rat glomeruli incubated 30 min with or without 20 µM myr-ζPS peptide; immunoblotting; remark: listed apart in the source
[4] = target: T2, podocin (rat (endogenous in rat glomeruli)), Q8K4G9; experiment: as above; details: remark: other sources report otherwise
T2 chain: T1 sequence

Molecule: PAR3 (from UniProt Q9Z340 1-1337)
- binding [1]: binds

B1: aPKCλ (enzyme, UniProt F1M7Y5 1-596)
chain: MPTQRDSSTMSHTVACGGGGDHSHQVRVKAYYRGDIMITHFEPSISFEGLCSEVRDMCSFDNEQPFTMKWIDEEGDPCTVSSQLELEEAFRLYELNKDSELLIHVFPCVPERPGMPCPGEDKSIYRRGARRWRKLYCANGHTFQAKRFNRRAHCAICTDRIWGLGRQGYKCINCKLLVHKKCHKLVTIECGRHSLPPEPMMPMDQSSMHPDHTQTVIPYNPSSHESLDQVGEEKEAMNTRESGKASSSLGLQDFDLLRVIGRGSYAKVLLVRLKKTDRIYAMKVVKKELVNDDEDIDWVQTEKHVFEQASNHPFLVGLHSCFQTESRLFFVIEYVNGGDLMFHMQRQRKLPEEHARFYSAEISLALNYLHERGIIYRDLKLDNVLLDSEGHIKLTDYGMCKEGLRPGDTTSTFCGTPNYIAPEILRGEDYGFSVDWWALGVLMFEMMAGRSPFDIVGSSDNPDQNTEDYLFQVILEKQIRIPRSLSVKAASVLKSFLNKDPKERLGCHPQTGFADIQGHPFFRNVDWDMMEQKQVVPPFKPNISGEFGLDNFDSQFTNEPVQLTPDDDDIVRKIDQSEFEGFEYINPLLMSAEECV
- binding [2]: binds
- binding [3]: binds

B2: nephrin (protein, UniProt Q9R044 37-1252)
chain: ESPVPTSAPRGFWALSENLTAVEGTTVKLWCGVRAPGSVVQWAKDGLLLGPNPKMPGFPRYSLEGDRAKGEFHLLIEACDLSDDAEYECQVGRSELGPELVSPKVILSILVSPKVLLLTPEAGSTVTWVAGQEYVVTCVSGDAKPAPDITFIQSGRTILDVSSNVNEGSEEKLCITEAEARVIPQSSDNGQLLVCEGSNPALDTPIKASFTMNILFPPGPPVIDWPGLNEGHVRAGENLELPCTARGGNPPATLQWLKNGKPVSTAWGTEHAQAVAHSVLVMTVRPEDHGARLSCQSYNSVSAGTQERSITLQVTFPPSAITILGSVSQSENKNVTLCCLTKSSRPRVLLRWWLGGRQLLPTDETVMDGLHGGHISMSNLTFLVRREDNGLPLTCEAFSDAFSKETFKKSLTLNVKYPAQKLWIEGPPEGQYIRTGTRVRLVCLAIGGNPDPSLIWFKDSRPVSEPRQPQEPRRVQLGSVEKSGSTFSRELVLIIGPPDNRAKFSCKAGQLSASTQLVVQFPPTNLTILANSSALRPGDALNLTCVSISSNPPVNLSWDKEGERLEDVAAKPQSAPFKGSAASRSVFLRVSSRDHGQRVTCRAHSEALRETVSSFYRFNVLYPPEFLGEQVRAVTVVEQGQVLLPVSVSANPAPEAFNWTFRGYRLSPAGGPRHRILSGGALQLWNVTRADDGFYQLHCQNSEGTAEALLKLDVHYAPTIRALRDPTEVNVGGSVDIVCTVDANPILPEMFSWERLGEEEEDLNLDDMEKVSKGSTGRLRIRQAKLSQAGAYQCIVDNGVAPAARGLVRLVVRFAPQVDQPTPLTKVAAAGDSTSSATLHCRARGVPNIDFTWTKNGVPLDLQDPRYTEHRYHQGVVHSSLLTIANVSAAQDYALFKCTATNALGSDHTNIQLVSISRPDPPLGLKVVSISPHSVGLEWKPGFDGGLPQRFQIRYEALETPGFLHVDVLPTQATTFTLTGLKPSTRYRIWLLASNALGDSGLTDKGIQVSVTTPGPDQAPEDTDHQLPTELPPGPPRLPLLPVLFAVGGLLLLSNASCVGGLLWRRRLRRLAEEISEKTEAGSEDRIRNEYEESQWTGDRDTRSSTVSTAEVDPNYYSMRDFSPQLPPTLEEVLYHQGAEGEDMAFPGHLHDEVERAYGPPGAWGPLYDEVRMDPYDLRWPEVQCEDPRGIYDQVAADMDAVEASSLPFELRGHLV
- binding [2]: binds

Results, then the molecule that gave them:

- binding [4]: binds
B3: nephrin, Q9R044 37-1252 (protein)
chain: B2 chain

- binding [2]: binds
B4: podocin (protein, UniProt Q8K4G9 1-383)
chain: T1 sequence
